# According to PubChem BioAssay AID1347426 (Functional Genomics Laboratory (NCATS/FGL), 2020):
# About 1,400 (4.5%) of roughly 31,000 sequences were called active.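 Rule for the calls: active = median seed-adjusted z-score above 1 or below -1; inactive = the rest.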 The list shows a part of the results.
# Assay: Novel Modifiers of Survival Motor Neuron (SMN) Protein: Gene Identification via Genome-wide siRNA Screen;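 note: luminescence tracks full-length SMN protein made from the SMN2 reporter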
# Details: HEK293T SMN2-luciferase reporter, siRNA knockdown, 72 h; actives lie on both sides
# Outline: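 Steps: spot 1 pmol siRNA, add Lipofectamine RNAiMax in serum-free DMEM, seed HEK293T SMN2–luciferase reporter cells; incubate 72 h at 37 °C; add ONE-Glo; normalize luminescence to control siRNA, log10, MAD. Candidates: |MAD| > 1.0.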
row,Sequence,median seed-adjusted z-score
1,CAAAGACCAGCGAAACAAATT against RYBP,inactive: 0.831
2,AGUUCAUGUUCACAAAGCATT against CX3CR1,inactive: -0.292
3,GGAUAACUGCAGGAGAACATT against WFDC3,inactive: -0.644
4,GGGUAUUGCUAUCAGCGAATT against MPDZ,inactive: -0.398
5,AGGCCUUUGAGUUUGUGAATT against DUSP1,inactive: 0.336
6,GAGUUACGAUGAGGUCAAATT against NIN,inactive: 0.646
7,CAACUUCUAUAGUCGAAUATT against TXNDC3,inactive: -0.649
8,CCAAGUUUUUGUAUCGCUUTT against CSRP2BP,inactive: -0.526
9,CGACUACUAUGAGCACCGUTT against HCN2,inactive: 0
10,ACAGUCUUGUGAUCAGAAATT against UHRF1,inactive: 0.231
11,GGAUCCAAAGUUGAACAAATT against HNRNPAB,inactive: -0.631
12,CCCGUGAUUUUGACAUCUATT against SGPL1,inactive: 0.139
13,CAACAUUUAAAGAAGCUGATT against 14-Sep,inactive: 0.227
14,CAGCUGUGACCUUUGCUAATT against AQP7,inactive: 0.0827
15,GCAAAUACGGUAUCGACAATT against CTTN,inactive: -0.314
16,CAACCGAUCCAAACAGUUATT against SLC25A21,inactive: -0.219
17,CCCUUUGAGUGUCCCAAAUTT against ZBTB48,inactive: 0.0461
18,GGAGCAGUCGAAAACCCGATT against ARFRP1,inactive: -0.329
19,CAGCGGAUGUGGAACCGAATT against NPR1,inactive: -0.823
20,GAACAGUUCUUCGAAAACUTT against ZSCAN4,inactive: 0.617
21,UGGACCUGUCUGAUACUAATT against RDH11,inactive: -0.241
22,GGAAGAAAUUUGUCCGGAATT against ZNF510,inactive: 0.28
23,CGAACAACAUGCAAAGGUUTT against CDR2,inactive: -0.37
24,CAACAAGGAUUAUGCAGAUTT against COG2,inactive: 0.791
25,UGCUCUUCUUCGAAAACUATT against SCN1B,inactive: 0.331
26,GAGUCAGAGGGUUUGAUAATT against GALM,inactive: -0.111
27,GACUGAAGGUAAGAUUUCATT against SERPINB8,inactive: 0.371

# Some of the entries above, reformatted.
row | Sequence | median seed-adjusted z-score
9 | CGACUACUAUGAGCACCGUTT against HCN2 | inactive: 0
10 | ACAGUCUUGUGAUCAGAAATT against UHRF1 | inactive: 0.231
11 | GGAUCCAAAGUUGAACAAATT against HNRNPAB | inactive: -0.631

# Going on with the list.

row,Sequence,median seed-adjusted z-score
1,GAACCUCUUGGAGAGUGAATT against TRIM47,inactive: 0.707
2,CGCUGAAUGAAGAGUCUUATT against YWHAB,inactive: 0.579
3,AUCUUCACGUCGAAGUGAATT against BTN3A2,inactive: 0.402
4,GGCUAUAACAAAAGGAUCATT against RBM44,inactive: -0.00558
5,GCACGUGGUUGAAAUCGAATT against FREM2,inactive: 0.143
6,GAAUCUUCAAUCAAUCAUATT against ABI2,inactive: -0.0392
7,CCUCCGAUGUGAAUACUGATT against SCMH1,inactive: -0.305
8,GGUUUUAGACCACACUAAATT against MSH3,inactive: 0.428
9,CAGCUAUAAUCGUUUAUGATT against RAB22A,inactive: 0.321
10,GCGAGAGUCUGCAUAGGUATT against GRIN2D,inactive: -0.135
11,GAUAUAUCCGAAACCAGUATT against PDGFD,inactive: 0.366
12,GGAUCACCACACUUCCCAATT against DDX23,inactive: -0.468
13,GGGCGAUGUCCAUCCACAATT against PIF1,inactive: -0.0455
14,GGAUCUACCUACUCCCUCATT against ANGPTL7,inactive: 0
15,GGAAAGCGACUGAACUUCATT against SLAMF6,inactive: 0.0115
16,GGAUAACUGCGCUAGUGUUTT against EBI2,inactive: -0.312
17,GCGCAGCGCAGAAAAGAGATT against SURF6,inactive: 0.122
18,CAAUACGAUUGGGACAUUATT against UXS1,inactive: 0.25
19,GAGCAAAGAUUACCUAUUATT against LMAN1,inactive: -0.118
20,CAAAGGCAUUUACCUGAAATT against GPR133,inactive: -0.681
21,GCAACUCCUUCCUCGCUAATT against RBM17,inactive: 0
22,CGCAAAAUGGAAUAAGCUATT against DUSP8,inactive: -0.0326
23,GUACCAGUACUAUUCCAAUTT against PLA2G2A,inactive: 0.809
24,CAGCCUCUUUGUAAAGAUUTT against ATP6V0B,inactive: 0
25,GGAUUCACUCCACUACGAATT against DHH,inactive: 0
26,GCAACUCACGGAUGAUUGATT against WBSCR22,inactive: -0.21
